Binding data for two molecules are collected here from doi:10.1101/2025.11.28.691009.

Sequences of proteins named here, by UniProt entry; tags and fusion partners are left off.
UniProt Q9JIM3, whole entry: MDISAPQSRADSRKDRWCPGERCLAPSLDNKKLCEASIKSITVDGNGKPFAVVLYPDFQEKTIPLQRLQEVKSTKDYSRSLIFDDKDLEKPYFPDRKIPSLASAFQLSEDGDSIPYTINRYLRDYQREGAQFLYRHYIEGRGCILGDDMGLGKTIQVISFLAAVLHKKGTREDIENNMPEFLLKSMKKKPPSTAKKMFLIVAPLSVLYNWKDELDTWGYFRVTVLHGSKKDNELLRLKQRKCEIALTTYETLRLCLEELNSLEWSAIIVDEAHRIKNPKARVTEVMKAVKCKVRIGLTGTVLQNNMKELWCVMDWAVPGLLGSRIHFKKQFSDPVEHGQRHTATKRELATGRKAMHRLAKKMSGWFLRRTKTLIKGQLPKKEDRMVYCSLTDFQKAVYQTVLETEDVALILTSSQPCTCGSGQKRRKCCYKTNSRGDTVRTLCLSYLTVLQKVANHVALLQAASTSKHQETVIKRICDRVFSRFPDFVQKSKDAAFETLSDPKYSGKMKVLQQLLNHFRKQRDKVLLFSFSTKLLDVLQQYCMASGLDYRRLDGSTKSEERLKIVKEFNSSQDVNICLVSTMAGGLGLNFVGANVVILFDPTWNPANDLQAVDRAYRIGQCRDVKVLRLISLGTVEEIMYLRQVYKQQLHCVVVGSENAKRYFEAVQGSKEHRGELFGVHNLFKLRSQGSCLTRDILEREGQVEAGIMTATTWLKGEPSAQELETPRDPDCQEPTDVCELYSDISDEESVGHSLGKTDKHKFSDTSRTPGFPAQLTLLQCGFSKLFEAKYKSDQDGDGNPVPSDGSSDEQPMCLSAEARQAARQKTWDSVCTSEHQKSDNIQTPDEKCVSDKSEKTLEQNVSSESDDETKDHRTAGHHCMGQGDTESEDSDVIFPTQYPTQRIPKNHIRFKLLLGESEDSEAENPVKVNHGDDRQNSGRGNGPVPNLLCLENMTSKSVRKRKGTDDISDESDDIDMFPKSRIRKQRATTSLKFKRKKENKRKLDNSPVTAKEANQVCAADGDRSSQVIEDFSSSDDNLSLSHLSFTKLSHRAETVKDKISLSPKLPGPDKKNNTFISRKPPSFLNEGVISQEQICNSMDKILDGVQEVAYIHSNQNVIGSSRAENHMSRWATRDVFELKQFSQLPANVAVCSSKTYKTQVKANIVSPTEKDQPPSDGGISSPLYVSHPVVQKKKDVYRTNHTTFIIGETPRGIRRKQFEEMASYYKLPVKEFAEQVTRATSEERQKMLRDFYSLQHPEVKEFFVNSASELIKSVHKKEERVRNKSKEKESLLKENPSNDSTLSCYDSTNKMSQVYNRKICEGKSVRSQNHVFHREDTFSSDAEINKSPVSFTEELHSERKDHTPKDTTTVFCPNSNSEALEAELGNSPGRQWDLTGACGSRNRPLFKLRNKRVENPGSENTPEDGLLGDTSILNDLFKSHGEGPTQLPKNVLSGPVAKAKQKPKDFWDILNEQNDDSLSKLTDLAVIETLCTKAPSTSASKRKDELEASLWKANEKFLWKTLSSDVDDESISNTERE

Results are given in words; binding and its absence hold for the method and conditions named. In cells and extracts the contact can be indirect. Some results given as binding are weak or reduced against the parent protein; the word gives no strength. Tags and fused reporters may be left off the sequences shown.

For test [1], the target named is T1, triple-FLAG MRI (wild type) (UniProt Q8BHZ5).
T1 sequence: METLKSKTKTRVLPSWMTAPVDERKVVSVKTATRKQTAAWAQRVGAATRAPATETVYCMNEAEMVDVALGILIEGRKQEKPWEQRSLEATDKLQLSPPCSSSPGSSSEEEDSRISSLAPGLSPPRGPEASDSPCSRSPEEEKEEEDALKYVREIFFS
The experiment in a line: pull-down.

Test [2] addresses TwinStrep-HA-ERCC6L2 (endogenously tagged) (mouse (endogenous in CH12-F3)) (UniProt Q9JIM3). The experiment in a line: pull-down.

Turning to “TwinStrep-HA-ERCC6L2 (endogenously tagged) (from UniProt Q9JIM3 1-1537) (enzyme)”, the binding entry in test [1] is given as “binds”.

B1: triple-FLAG MRI (wild type) (protein, UniProt Q8BHZ5 1-157)
chain: METLKSKTKTRVLPSWMTAPVDERKVVSVKTATRKQTAAWAQRVGAATRAPATETVYCMNEAEMVDVALGILIEGRKQEKPWEQRSLEATDKLQLSPPCSSSPGSSSEEEDSRISSLAPGLSPPRGPEASDSPCSRSPEEEKEEEDALKYVREIFFS
As to B1, the binding result in test [2] is listed as “binds”.
